Measured values reported in PubChem BioAssay AID330 (DTP/NCI, 2004).
The list is a part of this screen's results and no random one: it gathers tests that were run many times, whatever their T/C, doses with no T/C, and many T/C values between a quarter and a half above the control. Other doses and runs of a compound stand elsewhere. T/C is the treated group as % of the vehicle group. Some doses have a count of surviving animals in place of a T/C: the source holds a T/C of zero for them, seemingly a mark for toxic or unscored doses. Some doses without a T/C left all or most animals alive at the check, yet need not have been tolerated: the source hardly ever lists a survival T/C far under the control, and the zero likely stands for such cases as well. Survivors were counted at the toxicity check, usually on the fifth day, unless a day is given; later deaths do not show. Schedules are NCI's codes, read here as Q, the interval in days (D) or hours (H), X, the number of doses. Some entries hold several experiments; the values are given in rising order. Counts like (3×) say how often a value occurs here. Where survival is the endpoint, the PubChem record calls one and a half times the control and up active, and a quarter to a half above the control has no call in these data; cut-offs in other NCI protocols can differ. Some T/C values carry the count of animals alive at the toxicity check (mostly the fifth day); where none is given, no animal had died by that day.

System: P388 leukemia ip, CD2F1 mice, survival T/C
Assay: NCI In Vivo Anticancer Drug Screen. Data for tumor model P388 Leukemia (intraperitoneal) in CD2F1 (CDF1) mice
Settings: T/C endpoint: median survival time, vehicle: Klucel (hydroxypropylcellulose) (HPC), higher T/C = longer survival
[1] = dose: 50.0 mg/kg/injection, schedule: Q01DX009 (ip)
[2] = dose: 50.0 mg/kg/injection, schedule: Q04DX002 (ip)
[3] = dose: 100.0 mg/kg/injection, schedule: Q01DX009 (ip)
[4] = dose: 100.0 mg/kg/injection, schedule: Q04DX002 (ip)
[5] = dose: 200.0 mg/kg/injection, schedule: Q01DX009 (ip)
[6] = dose: 400.0 mg/kg/injection, schedule: Q01DX005 (ip)
[7] = dose: 400.0 mg/kg/injection, schedule: Q01DX009 (ip)
[8] = dose: 400.0 mg/kg/injection, schedule: Q04DX002 (ip)

With `O=C1CN=C(c2ccc[nH]2)c2cc(Cl)ccc2N1` the T/C (dose: 50.0 mg/kg/injection, schedule: Q01DX001 (ip), evaluated on day 30) was 90, 92, 93, 96, 97 (2×), 98 (2×), 99, 100, 101 (3×), 102 (2×), 103 (4×), 104, 105 (2×), 107, 108, 110, 111 % of control (3×), the T/C (dose: 50.0 mg/kg/injection, schedule: Q01DX001 (ip), evaluated on day 35) was 104 % of control and the survivor count (dose: 50.0 mg/kg/injection, schedule: Q01DX001 (ip)) was 3 of 3 and 6 of 6. The T/C (dose: 50.0 mg/kg/injection, schedule: Q01DX005 (ip), evaluated on day 30) was 89, 91, 98, 99 (2×), 100 (2×), 101 (2×), 102 (5×), 103 (3×), 104, 105, 106, 109, 110 (2×), 111, 112 (2×), 113, 115 (2×), 116 (2×), 117, 126 % of control, the T/C (dose: 50.0 mg/kg/injection, schedule: Q01DX005 (ip), evaluated on day 35) was 118 % of control and the survivor count (dose: 50.0 mg/kg/injection, schedule: Q01DX005 (ip)) was 6 of 6. The T/C [1] was 90 (2×), 92, 93, 99, 102 (2×), 103, 104 (2×), 105 (5×), 106 (3×), 108 (2×), 109 (2×), 110, 113 (3×), 114, 115, 118 (2×), 123, 133, 140, 144 % of control, the survivor count [1] was 6 of 6 and the T/C [2] was 86 (2×), 90, 94, 96, 97 (4×), 98, 99 (2×), 100 (4×), 101 (4×), 102 (2×), 103, 105 (3×), 106, 107, 109 (2×), 111 (3×), 116 % of control. The survivor count [2] was 3 of 3, the T/C (dose: 50.0 mg/kg/injection, schedule: Q04DX003 (ip), evaluated on day 30) was 87 (2×), 92, 94, 99, 100 (4×), 101 (2×), 102 (4×), 103 (4×), 105 (2×), 105 [5 of 6 alive], 106, 107 (2×), 108 (2×), 109, 111, 114, 116, 119, 120, 121 % of control and the T/C (dose: 50.0 mg/kg/injection, schedule: Q04DX003 (ip), evaluated on day 35) was 107 % of control. For the same compound, the survivor count (dose: 50.0 mg/kg/injection, schedule: Q04DX003 (ip)) was 6 of 6, the T/C (dose: 100.0 mg/kg/injection, schedule: Q01DX001 (ip), evaluated on day 30) was 90, 97 (2×), 98, 99, 99 [5 of 6 alive], 100 (2×), 101, 102, 103 [5 of 6 alive], 104, 105 (2×), 106 (4×), 108, 109, 110, 111 (4×), 113, 117, 120 % of control and the T/C (dose: 100.0 mg/kg/injection, schedule: Q01DX001 (ip), evaluated on day 35) was 102 % of control. The survivor count (dose: 100.0 mg/kg/injection, schedule: Q01DX001 (ip)) was 3 of 3 and 6 of 6, the T/C (dose: 100.0 mg/kg/injection, schedule: Q01DX005 (ip), evaluated on day 30) was 87, 88, 98, 100, 103, 104 (3×), 106 (2×), 107 (3×), 107 [5 of 6 alive], 109 (2×), 111, 112 (2×), 114, 117 (3×), 118, 120, 124 (2×), 132, 134, 140 % of control and the T/C (dose: 100.0 mg/kg/injection, schedule: Q01DX005 (ip), evaluated on day 35) was 117 % of control. For the same compound, the survivor count (dose: 100.0 mg/kg/injection, schedule: Q01DX005 (ip)) was 1 of 3, 3 of 3, 6 of 6, the T/C [3] was 87, 88, 90, 99, 100 (2×), 101, 102, 103, 105 (2×), 106, 107, 108, 110, 111 (2×), 112, 114 (2×), 115 (2×), 117, 118, 123, 126 (2×), 131, 135 (2×), 138, 143, 144 % of control and the survivor count [3] was 3 of 3 and 6 of 6 (2×). For the same compound, the T/C [4] was 91, 93, 94 (2×), 97, 99 (2×), 100 (3×), 101, 102, 103 (2×), 104 (3×), 105, 106 (2×), 107, 107 [5 of 6 alive], 108 (3×), 109 (3×), 111, 113, 114 (2×), 118, 119 % of control, the survivor count [4] was 6 of 6 and the T/C (dose: 100.0 mg/kg/injection, schedule: Q04DX003 (ip), evaluated on day 30) was 87, 90, 94, 95, 100 (2×), 101 (4×), 102 (3×), 103, 105 (4×), 107 (4×), 108 (3×), 110 (3×), 111, 112 (2×), 114 (2×), 117 % of control. For the same compound, the T/C (dose: 100.0 mg/kg/injection, schedule: Q04DX003 (ip), evaluated on day 35) was 108 % of control, the survivor count (dose: 100.0 mg/kg/injection, schedule: Q04DX003 (ip)) was 5 of 6 and the T/C (dose: 200.0 mg/kg/injection, schedule: Q01DX001 (ip), evaluated on day 30) was 90, 96 [5 of 6 alive], 97, 100 (2×), 101 (2×), 104 (2×), 105, 106 (2×), 108, 109 [2 of 3 alive], 110 (3×), 111 (3×), 112, 113, 115, 116, 118, 121 % of control (3×). For the same compound, the T/C (dose: 200.0 mg/kg/injection, schedule: Q01DX001 (ip), evaluated on day 35) was 106 % of control, the survivor count (dose: 200.0 mg/kg/injection, schedule: Q01DX001 (ip)) was 3 of 3 and 6 of 6 and the T/C (dose: 200.0 mg/kg/injection, schedule: Q01DX005 (ip), evaluated on day 30) was 91, 94, 95, 97, 100, 101, 103, 105, 107 [5 of 6 alive], 109 (2×), 115 (2×), 117 (2×), 122 [2 of 3 alive], 123 [5 of 6 alive], 125, 126 (2×), 132, 141, 148, 150 % of control. For the same compound, the T/C (dose: 200.0 mg/kg/injection, schedule: Q01DX005 (ip), evaluated on day 35) was 111 % of control, the survivor count (dose: 200.0 mg/kg/injection, schedule: Q01DX005 (ip)) was 0 of 3, 0 of 6, 1 of 6, 1 of 3, 2 of 3, 4 of 6, 3 of 3, 6 of 6 and the T/C [5] was 87 (2×), 89, 90, 91, 92, 92 [2 of 3 alive], 94, 97, 98, 100, 101, 102, 106, 107 (2×), 115, 116 (3×), 120 (2×), 121, 123 [5 of 6 alive], 125, 126, 131, 148, 153 % of control. For the same compound, the survivor count [5] was 1 of 3, 2 of 6, 2 of 3, 4 of 6, 6 of 6 (2×), the T/C (dose: 200.0 mg/kg/injection, schedule: Q04DX002 (ip)) was 86, 89 (2×), 96, 98 (2×), 98 [5 of 6 alive], 100 (2×), 101, 102 (3×), 105 [2 of 3 alive], 106 (2×), 106 [2 of 3 alive], 107 (2×), 109 (4×), 109 [4 of 6 alive], 110 (2×), 111, 112, 112 [2 of 3 alive], 113, 115, 119, 120, 123, 127 % of control and the T/C (dose: 200.0 mg/kg/injection, schedule: Q04DX003 (ip), evaluated on day 30) was 86 [5 of 6 alive], 88, 91, 94 [5 of 6 alive], 95 (2×), 100 (5×), 100 [2 of 3 alive], 101, 102 (2×), 103, 105 (2×), 106, 108, 111 (4×), 112, 113 (2×), 116 (3×), 120, 121, 122 % of control. The T/C (dose: 200.0 mg/kg/injection, schedule: Q04DX003 (ip), evaluated on day 35) was 117 % of control, the survivor count (dose: 200.0 mg/kg/injection, schedule: Q04DX003 (ip)) was 3 of 3 and 6 of 6 and the T/C (dose: 400.0 mg/kg/injection, schedule: Q01DX001 (ip), evaluated on day 30) was 94, 99, 99 [2 of 3 alive], 100, 101, 105 (3×), 106 [5 of 6 alive], 107, 111, 116 [4 of 6 alive], 118, 118 [4 of 6 alive], 120 [2 of 3 alive] (2×), 121 (3×), 122 (2×), 147 % of control [2 of 3 alive]. The T/C (dose: 400.0 mg/kg/injection, schedule: Q01DX001 (ip), evaluated on day 35) was 119 % of control [4 of 6 alive], the survivor count (dose: 400.0 mg/kg/injection, schedule: Q01DX001 (ip)) was 0 of 6, 1 of 6, 1 of 3, 3 of 6, 3 of 3, 6 of 6 and the T/C [6] was 90, 101, 102, 104 [5 of 6 alive], 106, 110, 114 [4 of 6 alive], 116, 134 % of control. For the same compound, the survivor count [6] was 0 of 3, 0 of 6, 1 of 6, 1 of 3, 2 of 6, 3 of 6, 2 of 3, 4 of 6, 5 of 6 (2×), 3 of 3, 6 of 6, the T/C [7] was 86, 87, 90, 98 [2 of 3 alive], 106, 111 [2 of 3 alive], 113 (2×), 113 [4 of 6 alive], 120, 127, 128, 129 % of control and the survivor count [7] was 0 of 3, 0 of 6, 2 of 6, 3 of 6, 2 of 3, 4 of 6 (2×), 3 of 3. For the same compound, the T/C [8] was 89 [2 of 3 alive], 90 [5 of 6 alive], 92 [2 of 3 alive], 96, 97 [5 of 6 alive], 100 (2×), 101, 102, 103, 105 (2×), 106, 107 (3×), 109 [2 of 3 alive], 110, 114 [2 of 3 alive], 122 [4 of 6 alive], 125 [2 of 3 alive], 131 % of control, the survivor count [8] was 0 of 3, 0 of 6, 1 of 6, 1 of 3, 2 of 6, 3 of 6, 2 of 3, 4 of 6, 5 of 6 and the T/C (dose: 400.0 mg/kg/injection, schedule: Q04DX003 (ip), evaluated on day 30) was 89 [5 of 6 alive], 92 [5 of 6 alive], 98, 99, 103 [2 of 3 alive], 106, 107, 110, 110 [5 of 6 alive], 111 (2×), 112, 117, 120, 120 [4 of 6 alive], 121 (2×), 122 [5 of 6 alive], 135 [2 of 3 alive], 142 % of control. The T/C (dose: 400.0 mg/kg/injection, schedule: Q04DX003 (ip), evaluated on day 35) was 117 % of control and the survivor count (dose: 400.0 mg/kg/injection, schedule: Q04DX003 (ip)) was 0 of 3, 1 of 6, 1 of 3, 2 of 6, 1 of 2, 3 of 6, 2 of 3, 4 of 6, 3 of 3, 6 of 6.
